From PMC7001155
These are yes or no findings as the source states them, for the method shown. In cells and extracts the contact can be indirect. Binding can be weak; no strength is given.

By UniProt entry, the sequences of proteins in these tests, tags left out. Where a name states a change or a piece, a line headed by the entry shows the natural chain unless it says otherwise.
UniProt Q2M1V0: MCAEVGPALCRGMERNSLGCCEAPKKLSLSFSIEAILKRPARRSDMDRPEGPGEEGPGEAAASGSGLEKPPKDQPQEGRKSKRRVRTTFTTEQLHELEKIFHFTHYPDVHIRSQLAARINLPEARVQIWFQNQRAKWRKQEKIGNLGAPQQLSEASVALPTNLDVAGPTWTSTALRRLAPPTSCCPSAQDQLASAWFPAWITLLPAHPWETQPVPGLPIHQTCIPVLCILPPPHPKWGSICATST
UniProt Q92831: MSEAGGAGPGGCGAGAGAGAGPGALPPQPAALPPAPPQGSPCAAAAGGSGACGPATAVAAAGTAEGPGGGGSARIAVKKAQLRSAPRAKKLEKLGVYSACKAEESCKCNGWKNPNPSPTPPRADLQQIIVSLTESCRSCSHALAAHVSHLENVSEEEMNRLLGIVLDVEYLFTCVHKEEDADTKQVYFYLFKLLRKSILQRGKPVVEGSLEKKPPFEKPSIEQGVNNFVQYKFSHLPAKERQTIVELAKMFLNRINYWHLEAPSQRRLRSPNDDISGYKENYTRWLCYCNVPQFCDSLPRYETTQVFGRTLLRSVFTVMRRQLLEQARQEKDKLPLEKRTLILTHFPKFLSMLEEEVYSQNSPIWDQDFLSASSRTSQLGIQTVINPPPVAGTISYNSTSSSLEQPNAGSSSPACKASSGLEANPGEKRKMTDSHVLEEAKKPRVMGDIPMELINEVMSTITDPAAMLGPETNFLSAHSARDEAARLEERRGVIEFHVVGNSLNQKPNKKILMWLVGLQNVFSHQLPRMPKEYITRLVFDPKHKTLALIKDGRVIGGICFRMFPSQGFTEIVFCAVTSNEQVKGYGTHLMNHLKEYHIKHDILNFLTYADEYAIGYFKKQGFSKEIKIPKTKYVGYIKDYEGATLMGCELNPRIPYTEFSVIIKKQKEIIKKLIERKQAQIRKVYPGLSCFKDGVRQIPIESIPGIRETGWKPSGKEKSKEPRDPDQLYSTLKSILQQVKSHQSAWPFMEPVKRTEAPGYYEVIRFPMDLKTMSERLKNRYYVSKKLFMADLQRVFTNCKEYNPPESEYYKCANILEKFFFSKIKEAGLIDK

Key:
[1] = target: GFP‐tagged ISX AC1 mutant (position 38) (human) (UniProt Q2M1V0); test: co-IP; A549 cells transfected with GFP-tagged WT or mutant (AC1-AC3) ISX; anti-GFP immunoprecipitates blotted for endogenous PCAF and BRD4
[2] = target: GFP‐tagged ISX AC2 mutant (position 72) (human) (UniProt Q2M1V0); test: as above

p300/CBP‐associated factor (PCAF) (from UniProt Q92831 1-832) (enzyme)
binding [1]: binds | binding [2]: binds
